No constants are given. Whether binding was seen depends on the method and setting. Binding seen in cells or lysates may run through a third protein. Some binding calls cover weakened binding; strength is not graded here. Sequences can lack the tags named with a protein.

Sequences of proteins named here, by UniProt entry; tags and fusion partners are left off.
UniProt O55143: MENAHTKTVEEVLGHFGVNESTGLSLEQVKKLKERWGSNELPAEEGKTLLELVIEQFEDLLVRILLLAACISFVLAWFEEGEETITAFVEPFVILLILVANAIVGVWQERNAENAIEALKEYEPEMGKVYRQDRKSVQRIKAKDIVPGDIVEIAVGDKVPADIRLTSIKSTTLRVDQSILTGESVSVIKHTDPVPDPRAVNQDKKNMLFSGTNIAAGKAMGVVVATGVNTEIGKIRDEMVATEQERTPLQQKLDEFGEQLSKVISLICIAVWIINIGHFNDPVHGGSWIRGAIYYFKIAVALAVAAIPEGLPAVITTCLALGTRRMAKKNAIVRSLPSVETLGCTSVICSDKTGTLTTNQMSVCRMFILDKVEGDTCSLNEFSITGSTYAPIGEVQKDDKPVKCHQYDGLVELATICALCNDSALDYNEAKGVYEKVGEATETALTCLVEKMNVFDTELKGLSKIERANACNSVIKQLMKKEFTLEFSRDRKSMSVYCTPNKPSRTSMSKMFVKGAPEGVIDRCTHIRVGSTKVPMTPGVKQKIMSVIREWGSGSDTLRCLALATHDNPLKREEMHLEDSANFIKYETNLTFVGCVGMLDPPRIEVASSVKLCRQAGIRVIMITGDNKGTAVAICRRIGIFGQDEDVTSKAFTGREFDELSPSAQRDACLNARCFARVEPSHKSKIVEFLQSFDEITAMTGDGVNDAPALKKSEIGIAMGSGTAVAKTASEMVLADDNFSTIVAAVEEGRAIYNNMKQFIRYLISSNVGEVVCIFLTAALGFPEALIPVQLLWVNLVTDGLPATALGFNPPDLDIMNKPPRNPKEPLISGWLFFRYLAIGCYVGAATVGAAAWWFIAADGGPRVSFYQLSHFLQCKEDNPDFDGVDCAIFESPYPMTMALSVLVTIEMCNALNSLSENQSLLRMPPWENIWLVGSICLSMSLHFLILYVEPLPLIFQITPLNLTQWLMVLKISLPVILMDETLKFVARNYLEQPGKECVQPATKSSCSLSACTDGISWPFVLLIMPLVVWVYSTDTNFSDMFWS

For the assay, the target named is T1, endogenous mouse SERCA2b (ATP2a2) (mouse, UniProt O55143 1-1044).
T1 construct: also called endogenous SERCA2b
In words: IP (anti-FLAG then anti-Myc) and LC-MS/MS, MH-S cell lysate.

B1: endogenous MFSD7C of mouse bone marrow-derived macrophages (other, UniProt Q91X85 1-551, looked up)
chain: MVNESLNQEESNDRPAPESEFQMDTSYSTQPSGSIHPSVSGHPSVSGHPSVSGHPSVSIHPSVSIDPSVSVRPSSSALPSTLAQPSGLTHHSSLVREDSVIKVSKRRWVVVLVFSCYSLCNAFQWIQYGSINNIFMNFYGVSAFAIDWLSMCYMLTYIPLLLPVAWMLEKFGLRTIAITGSALNCLGAWVKLGSLEPHLFPVTMVGQVICSVAQVFILGMPSRIASVWFGADEVSTACSVAVFGNQLGIAIGFLVPPVLVPNIKDPEKLAYHISIMFYIIGGVATFLFILVIIVFKEKPKHPPSRAQSLSYALATTDASYLSSIVRLFKNLNFVLLVITYGLNAGAFYALSTLLNRMVILHFPGEEVNAGRIGLTIVIAGMFGAMISGIWLDKSKTYKETTLVVYIMTLVGMVVYTFTLNLNHLWVVFITAGTLGFFMTGYLPLGFEFAVELTYPESEGVSSGLLNVSAQVFGIVFTISQGQIIDNHGTMFGNIFLCVFLALGSALTAFIKSDLRRQRANKDAPETKVQEEEEEEEGSNTSKVPVVSEAHL
Turning to B1, the binding result is “binds”.
